Results are given in words; binding and its absence hold for the method and conditions named. Binding seen in cells or lysates may run through a third protein. Some entries that bind do so weakly or less than the wild type. For some of these results: Sequences can lack the tags named with a protein.
T1: CHLI1 (I subunit of Mg-chelatase), endogenous in Arabidopsis (Arabidopsis thaliana (endogenous in Arabidopsis total proteins)) (UniProt P16127)
T1 sequence: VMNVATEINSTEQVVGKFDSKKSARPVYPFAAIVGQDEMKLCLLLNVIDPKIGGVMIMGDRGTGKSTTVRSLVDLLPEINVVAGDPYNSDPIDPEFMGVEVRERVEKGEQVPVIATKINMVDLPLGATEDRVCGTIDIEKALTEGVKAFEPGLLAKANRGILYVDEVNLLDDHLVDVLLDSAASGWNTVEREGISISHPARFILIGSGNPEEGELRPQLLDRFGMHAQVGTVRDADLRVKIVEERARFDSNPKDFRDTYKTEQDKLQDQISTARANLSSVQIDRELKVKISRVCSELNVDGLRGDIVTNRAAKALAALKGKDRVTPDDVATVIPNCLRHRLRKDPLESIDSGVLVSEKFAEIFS

Protein sequences, listed by entry. Tags and fused reporters are not part of them. Residues count along the entry.
UniProt Q9SJE1, residues 50-760: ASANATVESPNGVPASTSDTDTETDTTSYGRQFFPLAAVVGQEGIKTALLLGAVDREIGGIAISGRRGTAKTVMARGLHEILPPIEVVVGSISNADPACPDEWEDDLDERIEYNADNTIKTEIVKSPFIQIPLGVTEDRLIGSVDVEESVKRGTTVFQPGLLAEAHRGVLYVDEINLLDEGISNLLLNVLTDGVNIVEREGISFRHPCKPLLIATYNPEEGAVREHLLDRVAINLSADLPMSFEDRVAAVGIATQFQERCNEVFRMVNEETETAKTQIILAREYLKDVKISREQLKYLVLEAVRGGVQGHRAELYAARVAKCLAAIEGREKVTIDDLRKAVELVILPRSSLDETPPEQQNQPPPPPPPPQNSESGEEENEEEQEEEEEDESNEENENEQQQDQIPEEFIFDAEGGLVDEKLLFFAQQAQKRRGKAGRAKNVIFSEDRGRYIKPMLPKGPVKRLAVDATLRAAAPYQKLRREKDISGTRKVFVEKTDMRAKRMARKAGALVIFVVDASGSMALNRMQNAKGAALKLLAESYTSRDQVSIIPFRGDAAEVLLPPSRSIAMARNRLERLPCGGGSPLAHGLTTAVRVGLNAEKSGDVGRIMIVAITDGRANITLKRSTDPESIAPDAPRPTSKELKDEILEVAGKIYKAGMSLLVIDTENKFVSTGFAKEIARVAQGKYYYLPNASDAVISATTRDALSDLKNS

T2: CHLI1-C-terminal half of Luc (CLuc) (Arabidopsis thaliana) (UniProt P16127)
T2 sequence: T1 sequence

B1: CHLH/ABAR (H subunit of Mg-chelatase), endogenous in Arabidopsis (protein, UniProt Q9FNB0 50-1381)
chain: AVSGNGLFTQTNPEVRRIVPIKRDNVPTVKIVYVVLEAQYQSSLSEAVQSLNKTSRFASYEVVGYLVEELRDKNTYNNFCEDLKDANIFIGSLIFVEELAIKVKDAVEKERDRMDAVLVFPSMPEVMRLNKLGSFSMSQLGQSKSPFFQLFKRKKQGSAGFADSMLKLVRTLPKVLKYLPSDKAQDARLYILSLQFWLGGSPDNLQNFVKMISGSYVPALKGVKIEYSDPVLFLDTGIWHPLAPTMYDDVKEYWNWYDTRRDTNDSLKRKDATVVGLVLQRSHIVTGDDSHYVAVIMELEARGAKVVPIFAGGLDFSGPVEKYFVDPVSKQPIVNSAVSLTGFALVGGPARQDHPRAIEALKKLDVPYLVAVPLVFQTTEEWLNSTLGLHPIQVALQVALPELDGAMEPIVFAGRDPRTGKSHALHKRVEQLCIRAIRWGELKRKTKAEKKLAITVFSFPPDKGNVGTAAYLNVFASIFSVLRDLKRDGYNVEGLPENAETLIEEIIHDKEAQFSSPNLNVAYKMGVREYQDLTPYANALEENWGKPPGNLNSDGENLLVYGKAYGNVFIGVQPTFGYEGDPMRLLFSKSASPHHGFAAYYSYVEKIFKADAVLHFGTHGSLEFMPGKQVGMSDACFPDSLIGNIPNVYYYAANNPSEATIAKRRSYANTISYLTPPAENAGLYKGLKQLSELISSYQSLKDTGRGPQIVSSIISTAKQCNLDKDVDLPDEGLELSPKDRDSVVGKVYSKIMEIESRLLPCGLHVIGEPPSAMEAVATLVNIAALDRPEDEISALPSILAECVGREIEDVYRGSDKGILSDVELLKEITDASRGAVSAFVEKTTNSKGQVVDVSDKLTSLLGFGINEPWVEYLSNTKFYRANRDKLRTVFGFLGECLKLVVMDNELGSLMQALEGKYVEPGPGGDPIRNPKVLPTGKNIHALDPQAIPTTAAMASAKIVVERLVERQKLENEGKYPETIALVLWGTDNIKTYGESLGQVLWMIGVRPIADTFGRVNRVEPVSLEELGRPRIDVVVNCSGVFRDLFINQMNLLDRAIKMVAELDEPVEQNFVRKHALEQAEALGIDIREAATRVFSNASGSYSANISLAVENSSWNDEKQLQDMYLSRKSFAFDSDAPGAGMAEKKQVFEMALSTAEVTFQNLDSSEISLTDVSHYFDSDPTNLVQSLRKDKKKPSSYIADTTTANAQVRTLSETVRLDARTKLLNPKWYEGMMSSGYEGVREIEKRLSNTVGWSATSGQVDNWVYEEANSTFIQDEEMLNRLMNTNPNSFRKMLQTFLEANGRGYWDTSAENIEKLKELYSQVEDKIEGIDR
B2: ABAR-N-terminal half of Luc (ABAR-NLuc) (protein, UniProt Q9FNB0 50-1381)
chain: B1 chain

Experiments:
[1] = biological target: T1, CHLI1 (I subunit of Mg-chelatase), endogenous in Arabidopsis (Arabidopsis thaliana (endogenous in Arabidopsis total proteins)); test: co-IP; Arabidopsis total proteins (6 mg in 1 mL extraction buffer); IP with anti-CHLI1 or anti-CHLD serum, blot with anti-ABAR serum; preimmune serum as control
[2] = biological target: CHLD (D subunit of Mg-chelatase), endogenous in Arabidopsis (Arabidopsis thaliana (endogenous in Arabidopsis total proteins)) (UniProt Q9SJE1); test: as above
[3] = biological target: CHLD-C-terminal half of Luc (CLuc) (Arabidopsis thaliana) (UniProt Q9SJE1); test: split reporter; firefly luciferase complementation imaging (LCI) in N. benthamiana leaves infiltrated with Agrobacterium carrying NLuc and CLuc construct pairs; CCD imaging
[4] = biological target: T2, CHLI1-C-terminal half of Luc (CLuc) (Arabidopsis thaliana); test: as above

| Binder | binding [1] | binding [2] | binding [3] | binding [4] |
| --- | --- | --- | --- | --- |
| B1 | binds | binds |  |  |
| B2 |  |  | binds | binds |

From paper PMC3472068, “Roles of the different components of magnesium chelatase in abscisic acid signal transduction” (Plant Molecular Biology, 2012)
